Results are given in words; binding and its absence hold for the method and conditions named. Some binding calls cover weakened binding; strength is not graded here. Blank lines part the entries; values can stand above or below the binder they belong to.
Legend:
[1] = biological target: human serum albumin (human) (UniProt P02768); experiment: Biacore, captured HSA and HSA domain constructs
[2] = biological target: HSA-domain I-II construct (human) (UniProt P02768); experiment: Biacore, captured HSA and HSA domain constructs
[3] = biological target: HSA-domain I-II construct (human) (UniProt P02768); experiment: BIACORE domain mapping, HSA-domain I-II construct captured on chip
[4] = biological target: rhesus serum albumin (rhesus) (UniProt Q28522); experiment: SPR, captured albumin
[5] = biological target: human PCSK9 (proprotein convertase subtilisin kexin type 9) (human) (UniProt Q8NBP7); experiment: ITC
[6] = biological target: human PCSK9 (proprotein convertase subtilisin kexin type 9) (human) (UniProt Q8NBP7); experiment: unbound plasma hPCSK9, hPCSK9 transgenic mice
[7] = biological target: human serum albumin (human) (UniProt P02768); experiment: SPR, captured albumin, pH 5.5 to 7.4

Chains of the proteins cited; added tags and fusions are not shown. Lines headed by an entry give the natural chain unless they say otherwise; changes in a name come on top. Residues count along the entry.
UniProt P02768: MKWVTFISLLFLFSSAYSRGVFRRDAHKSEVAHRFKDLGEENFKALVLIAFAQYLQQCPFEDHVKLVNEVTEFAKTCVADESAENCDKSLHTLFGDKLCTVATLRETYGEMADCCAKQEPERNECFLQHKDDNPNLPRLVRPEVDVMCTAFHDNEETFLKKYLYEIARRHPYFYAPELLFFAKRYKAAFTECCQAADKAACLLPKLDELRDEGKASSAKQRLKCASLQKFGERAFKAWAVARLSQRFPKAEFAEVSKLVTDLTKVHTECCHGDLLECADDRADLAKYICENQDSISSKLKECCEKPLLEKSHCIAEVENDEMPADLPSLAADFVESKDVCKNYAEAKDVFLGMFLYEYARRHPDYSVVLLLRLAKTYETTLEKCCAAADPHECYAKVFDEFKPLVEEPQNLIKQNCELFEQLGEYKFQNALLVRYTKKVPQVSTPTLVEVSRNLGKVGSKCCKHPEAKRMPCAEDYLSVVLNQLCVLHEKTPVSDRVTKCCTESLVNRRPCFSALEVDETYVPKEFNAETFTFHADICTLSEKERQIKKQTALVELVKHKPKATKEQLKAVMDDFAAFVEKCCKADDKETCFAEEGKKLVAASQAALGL
human serum albumin: residues 25-609 of P02768
HSA-domain I-II construct: residues 25-409 of P02768
UniProt Q28522, residues 17-600: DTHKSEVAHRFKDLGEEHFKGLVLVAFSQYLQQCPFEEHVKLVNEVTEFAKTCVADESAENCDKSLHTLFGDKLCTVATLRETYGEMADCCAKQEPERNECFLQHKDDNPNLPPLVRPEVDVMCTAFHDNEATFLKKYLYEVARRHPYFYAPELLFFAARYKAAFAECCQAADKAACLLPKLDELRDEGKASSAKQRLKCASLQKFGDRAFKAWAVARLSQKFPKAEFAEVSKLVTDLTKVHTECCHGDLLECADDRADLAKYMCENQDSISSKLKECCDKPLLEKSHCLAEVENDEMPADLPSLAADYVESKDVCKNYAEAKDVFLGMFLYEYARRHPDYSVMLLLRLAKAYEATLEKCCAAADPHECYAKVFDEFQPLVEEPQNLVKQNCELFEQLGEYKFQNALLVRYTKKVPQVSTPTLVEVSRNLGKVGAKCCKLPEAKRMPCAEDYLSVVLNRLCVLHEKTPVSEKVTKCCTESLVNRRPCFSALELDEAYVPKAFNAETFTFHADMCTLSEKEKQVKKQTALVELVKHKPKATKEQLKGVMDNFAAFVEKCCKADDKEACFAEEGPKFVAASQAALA
UniProt Q8NBP7, residues 31-692: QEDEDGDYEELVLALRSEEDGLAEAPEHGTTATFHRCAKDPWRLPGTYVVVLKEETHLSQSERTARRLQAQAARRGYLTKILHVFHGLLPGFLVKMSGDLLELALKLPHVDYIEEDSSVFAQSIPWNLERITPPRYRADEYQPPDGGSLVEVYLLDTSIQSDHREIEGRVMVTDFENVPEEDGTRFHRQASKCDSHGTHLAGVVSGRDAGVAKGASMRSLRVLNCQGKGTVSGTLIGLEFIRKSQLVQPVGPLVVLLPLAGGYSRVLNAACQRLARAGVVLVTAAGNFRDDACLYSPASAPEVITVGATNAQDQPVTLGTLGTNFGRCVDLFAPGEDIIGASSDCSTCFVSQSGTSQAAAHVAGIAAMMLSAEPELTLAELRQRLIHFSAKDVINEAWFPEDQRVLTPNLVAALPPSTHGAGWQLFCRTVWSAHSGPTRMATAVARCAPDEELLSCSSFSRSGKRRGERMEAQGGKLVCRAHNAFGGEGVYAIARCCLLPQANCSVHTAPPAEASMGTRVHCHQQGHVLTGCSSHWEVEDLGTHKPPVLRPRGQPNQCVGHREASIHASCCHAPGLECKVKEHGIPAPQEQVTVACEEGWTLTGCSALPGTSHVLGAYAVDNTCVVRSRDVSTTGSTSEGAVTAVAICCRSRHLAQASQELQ

B2: 2013E01 (designed binder)
chain: MGVSDVPRDLEVVAATPTSLLISWVPPSDDYGYYRITYGETGGNSPVQEFTVPIGKGTATISGLKPGVDYTITVYAVEFPWPHAGYYHRPISINYRTEIDKPSQHHHHHH
binding [5]: binds
binding [6]: binds

B3: SABA1.1 (designed binder)
chain: MGVSDVPRDLEVVAATPTSLLISWHSYYEQNSYYRITYGETGGNSPVQEFTVPYSQTTATISGLKPGVDYTITVYAVYGSKYYYPISINYRTEIDKPSQHHHHHH
binding [2]: binds
binding [3]: binds

More lines, now with the values ahead:

binding [1]: binds
binding [2]: binds
binding [3]: binds
binding [4]: binds
B1: SABA2.1 (designed binder)
chain: MGVSDVPRDLEVVAATPTSLLISWPKYDKTGHYYRITYGETGGNSPVQEFTVPTRQTTATISGLKPGVDYTITVYAVSKDDYYPHEHRPISINYRTEIDKPSQHHHHHH

binding [1]: binds
binding [7]: binds
binding [4]: binds
B4: SABA3.1 (designed binder)
chain: MGVSDVPRDLEVVAATPTSLLISWSNDGPGLSYYRITYGETGGNSPVQEFTVPSSQTTATISGLKPGVDYTITVYAVSYYTKKAYSAGPISINYRTEIDKPSQHHHHHH
